According to patent US20160264593A1 (priority 2013, published 2016):
Further values from the same series stand in other lists.

Conditions: female, Sprague-Dawley (SD), rat, in vivo, iv
Experimental: 100 was administrated via iv route at 0.5, 1.0 and 1.5 mg/kg into SD rats. The blood, liver and brain tissue samples were collected at predetermined times from rats.
Twelve (12) female SD rats per group were dosed by iv with 100. The rats were fasted overnight prior to dosing, with free access to water. Foods were withheld for 2 hours post-dose. Blood, liver and brain tissue samples in two animals each group were collected at each time point, within 10% of the scheduled time for each time point. Two extra animals were used for analytic method development. Blood (>0.3 mL) were collected via aorta abdominalis in anaesthetic animalsinto tubes containing heparin at 15 min, 1, 2, 6, 10 and 24 hours after iv administration. Liver and brain tissues were collected immediately after animal death. The liver and brain tissues were excised and rinsed with cold saline to avoid blood residual. Upon collection, each sample was placed on ice and the blood samples were subsequently centrifuged (4° C., 11000 rpm, 5 min) to separate plasma. The obtained plasma, liver and brain tissue samples were stored at −70° C. until LC-MS/MS analysis.
AUC0-∞ (AUC/NF) is the area under the plasma concentration-time curve with last concentration extrapolated based on the elimination rate constant.

CN1CCN(C(=O)C2C3CCC(O3)C2C(=O)O)CC1 (centres unmarked) [Compound 100, 3-(4-methylpiperazine-1-carbonyl)-7-oxa-bicyclo[2,2,1]-heptane-2-carboxylic acid] gave a 100 brain concentration (0.5 mg/kg, 0.25 h) of 19.5 ng/g and a 100 liver concentration (1.5 mg/kg, 6 h) of 471 ng/g.
